In patent US20250304707A1 one finds binding data, which are given here for twelve molecules.

The chains behind the UniProt entries cited, without tags or fusion partners. Where a name states a change or a piece, a line headed by the entry shows the natural chain unless it says otherwise. A line that says so, or that is headed by a name, gives the form on record, which may keep a tag or linker.
rhesus BCMA (F7FFA0, form named): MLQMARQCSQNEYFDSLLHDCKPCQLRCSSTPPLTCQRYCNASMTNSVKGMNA

Sequences and labels used below:
B1: Antibody 01-001 (antibody, human IgG1, kappa, L234A L235A, V domains shown)
VH: EVQLVQSGGGLVQPGGSLRLSCAVSGFTLSSSAMSWVRQAPGKGFEWVSGYNGGSDRAGFADSVEGRFTISRDNAKNTLYLQMNSLKPEDTAVYYCARYIANSGTYYWDYWGQGTLVTVSS
VL: QPVLTQPPSASGTPGQRVTISCSGSSSNIGSNTVNWYQQLPGTAPKLLIYNDSQRPSGVPDQFSGSKSGTSASLAISGLQSDNEADYYCAAWDGSLNVWMFGGGTKVTVLR
B2: Antibody 01-025 (antibody, human IgG1, kappa, L234A L235A, V domains shown)
VH: EVQLVQSGGGLVQSGGSLRVSCAASGFTFSSGLMSWVRQAPGKGFEWVSGYNGGSDRAGYTDSVKGRFTISRDNAKNTLYLQMNSLKPEDTAVYYCARYIANSGTYYWDYWGQGTTVTVSS
VL: QPVLTQPPSVSEAPRQRVTISCSGSSSNIGNNAVNWYQQLPGKAPKLLIYSTNQRPSGVPDRFSGSKSGTSASLAISGLQSEDEADYYCAAWDDRVSAWLFGGGTKLTVLR
B3: Antibody 01-027 (antibody, human IgG1, kappa, L234A L235A, V domains shown)
VH: EVQLVQSGGGLVQSGGSLRVSCAASGFTFSSGLMSWVRQAPGKGFEWVSGYNGGSDRAGYTDSVKGRFTISRDNAKNTLYLQMNSLKPEDTAVYYCARYIANSGTYYWDYWGQGTTVTVSS
VL: QAVLTQPPSASGTPGQRVSISCSGGISNIGSNIVNWYQHLPGTAPKLLIYSGNQRPSGVPDRFSGSKSGTSASLAISGLQSEDEADYYCSSWDSDLRNWVFGGGTKLTVLR
B4: Antibody 01-006 (antibody, human IgG1, kappa, L234A L235A, V domains shown)
VH: EVQLVQSGGGLVQPGGSLRLSCSASGFTFSSGLMSWVRQAPGKGFEWVSGYNGGSDRAGYTDSVKGRFTISRDNAKNTLYLQMNSLKPEDTAVYYCARYIANSGTYYWDYWGQGTLVTVSS
VL: QAVLTQPPSVSGTPGQRVTISCSGSTSNIGHRTVNWYQQFPGAAPKLLIYRNNQRPSGVPARFSGSKSGTSASLAISGLQSEDEADYHCAAWDDSLTAWVFGGGTQLTVLR
B5: Antibody 01-026 (antibody, human IgG1, kappa, L234A L235A, V domains shown)
VH: EVQLVQSGGGLVQSGGSLRVSCAASGFTFSSGLMSWVRQAPGKGFEWVSGYNGGSDRAGYTDSVKGRFTISRDNAKNTLYLQMNSLKPEDTAVYYCARYIANSGTYYWDYWGQGTTVTVSS
VL: QSVLTQPPSVSGAPGQRVTISCTGSSSNIGAGYDVHWYQQLPGTAPKLVIYGNTNRPSGVPDRFSGSKSGTSASLAISGLQSEDEADYYCAAWDDSLNGWVFGGGTKLTVLR
B6: Antibody 01-037 (antibody, human IgG1, kappa, L234A L235A, V domains shown)
VH: EVQLVQSGGGLVQSGGSLRVSCAASGFTFSSGLMSWVRQAPGKGFEWVSGYNGGSDRAGYTDSVKGRFTISRDNAKNTLYLQMNSLKPEDTAVYYCARYIANSGTYYWDYWGQGTTVTVSS
VL: SYVLTQPPSASGTPGQRVTISCSGTRSNIGTNTVNWYQQLPGTAPKLLIYRNNQRPSGVPDRFSGSKSGTSASLAISGLQSEDEADYYCAVWDDRVSAWLFGGGTKLTVLR
B7: Antibody 01-030 (antibody, human IgG1, kappa, L234A L235A, V domains shown)
VH: EVQLVQSGGGLVQPGGSLRVSCAASGFSFSSGLMSWVRQAPGKGFEWVSGYNGGSDRAGFADSVEGRFTISRDNAKNTLYLQMNSLKPEDTAVYYCARYIANSGTYYWDYWGQGTLVTVSS
VL: QSALTQPPSASGTPGQRVTISCSGSISNIGSNTVNWYQHLPGTAPKLLIYNHNQRPSGVPDRFSGSTSGTSASLAISGLQSEDEADYFCATWDDSLSAWLFGGGTKLTVLR
B8: Antibody 01-016 (antibody, human IgG1, kappa, L234A L235A, V domains shown)
VH: EVQLVQSGGGLVQPGGSLRLSCAVSGFTFSSSVMSWVRQAPGKGFEWVSGYNGGSDRAGFADSVEGRFTISRDNAKNTLYLQMNSLKPEDTAVYYCARYIANSGTYYWDYWGQGTLVTVSS
VL: QPVLTQPPSVSEAPRQRVTISCSGSSSNIGNNAVNWYQQLPGKAPKLLIFKNNQRPSGVPDRFSGSKSGTSASLVISGLQSEDEADYYCAAWDGSLNAWMFGGGTKLTVLR
B9: Antibody 01-024 (antibody, human IgG1, kappa, L234A L235A, V domains shown)
VH: EVQLVQSGGGLVQSGGSLRVSCAASGFTFSSGLMSWVRQAPGKGFEWVSCYNGGSDRAGYTDSVKGRFTISRDNAKNTLYLQMNSLKPEDTAVYYCARYIANSGTYYWDYWGQGTTVTVSS
VL: QAVLTQPPSASGTPGQRVSISCSGGISNIGSNIVNWYQHLPGTAPKLLIYSGNQRPSGVPDRFSGSKSGTSASLAISGLQSEDEADYYCSSWDSDLRNWVFGGGTKLTVLR
B10: 01-001 (Fab) (Fab, V domains shown)
VH: EVQLVQSGGGLVQPGGSLRLSCAVSGFTLSSSAMSWVRQAPGKGFEWVSGYNGGSDRAGFADSVEGRFTISRDNAKNTLYLQMNSLKPEDTAVYYCARYIANSGTYYWDYWGQGTLVTVSS
VL: QPVLTQPPSASGTPGQRVTISCSGSSSNIGSNTVNWYQQLPGTAPKLLIYNDSQRPSGVPDQFSGSKSGTSASLAISGLQSDNEADYYCAAWDGSLNVWMFGGGTKVTVL
B11: 01-006 (Fab) (Fab, V domains shown)
VH: EVQLVQSGGGLVQPGGSLRLSCSASGFTFSSGLMSWVRQAPGKGFEWVSGYNGGSDRAGYTDSVKGRFTISRDNAKNTLYLQMNSLKPEDTAVYYCARYIANSGTYYWDYWGQGTLVTVSS
VL: QAVLTQPPSVSGTPGQRVTISCSGSTSNIGHRTVNWYQQFPGAAPKLLIYRNNQRPSGVPARFSGSKSGTSASLAISGLQSEDEADYHCAAWDDSLTAWVFGGGTQLTVL
B12: 01-016 (Fab) (Fab, V domains shown)
VH: EVQLVQSGGGLVQPGGSLRLSCAVSGFTFSSSVMSWVRQAPGKGFEWVSGYNGGSDRAGFADSVEGRFTISRDNAKNTLYLQMNSLKPEDTAVYYCARYIANSGTYYWDYWGQGTLVTVSS
VL: QPVLTQPPSVSEAPRQRVTISCSGSSSNIGNNAVNWYQQLPGKAPKLLIFKNNQRPSGVPDRFSGSKSGTSASLVISGLQSEDEADYYCAAWDGSLNAWMFGGGTKLTVL

These are yes or no findings as the source states them, for the method shown. Some binding calls cover weakened binding; strength is not graded here.

For the first assay, the target named is rhesus BCMA (rhesus) (UniProt F7FFA0). Put plainly: BLI (Octet RED384), rhesus BCMA on AR2G sensors.
As for B1, the binding entry is on record as “binds”. On the same count and under the same terms, in the case of B2 it was “binds”.

Turning to B3, the binding result is reported as “binds”.

As for B4, the binding result was “binds”.

Take B5: the binding entry is given as “binds”.

For the molecule B6, the binding result is “binds”. On the same count and under the same terms, for B7 the value was “binds”. For B8, the binding result is recorded as “binds”. On the same count and under the same terms, in the case of B9 it was “binds”.

The next assay shares this target. Description: ELISA, immobilized antigen, E. coli supernatant.
Turning to B10, the binding result was “binds”. Turning to B11, the binding result is “binds”. Turning to B12, the binding result is “binds”.
